# Test results taken from PubChem BioAssay AID1487 (National Center for Advancing Translational Sciences (NCATS), 2009).
# Some of the results follow. Further columns of the screen follow, without active or inactive calls. The list favours compounds with an active or inconclusive main result. The note in brackets gives the kind of curve behind each potency; many fits are weak.
# Experiment: qHTS Assay for Modulators of Lamin A Splicing
# Conditions: HeLa LMNA splicing GFP/RFP minigene ratio, 48 h
# Procedure, shortened: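 Read-out is the ratio of GFP to DsRed2 object intensity, acquired by 488 nm laser-scanning cytometry on HeLa lamin A-EGFP minigene reporter cells. Compound incubation 48 hrs at 37 °C in Opti-MEM with 2% FBS; DMSO 0.5% final.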
# [1] = measured here: GFP splicing reporter channel
# [2] = measured here: RFP viability control channel
Compound,AC50 [1],AC50 [2]
Oc1csc(Cc2nc(-c3ccc4ccccc4c3)cs2)n1,"35.5 µM [falling, single point]","25.1 µM [falling, partial curve]"
Cc1ccc(-c2cc(-c3nnc(SCC(=O)N(C)CCC#N)n3N)c3ccccc3n2)cc1,,"35.5 µM [rising, single point]"
Cc1ccc(S(=O)(=O)N2CCN(C(=O)c3ccc(OCc4c(C)noc4C)cc3)CC2)cc1,,"15.8 µM [rising, single point]"
COc1ccc(N(C)C(=O)c2cnc(N3CCN(c4ncccn4)CC3)c3ccccc23)cc1,,"4.47 µM [rising, full curve, poor fit]"
COc1cccc(CN2CCNC(=O)C2CC(=O)NCCc2nc(C)c(C)s2)c1OC (stereo not given),,"25.1 µM [falling, partial curve, poor fit]"
CCN(CC)c1ccc2c(c1)oc(=O)c1c(Cl)cc(=O)oc12,"11.2 µM [falling, partial curve, poor fit]",
CN(CCOc1ccc(C[C@H](Nc2ccccc2C(=O)c2ccccc2)C(=O)O)cc1)c1ccccn1,"5.62 µM [falling, partial curve]","5.62 µM [falling, single point]"
Cc1nc(SC(C)C(=O)Nc2ccccc2Cl)cc(-c2ccccc2)n1 (stereo not given),,"6.31 µM [rising, full curve]"
COC(=O)Cc1ccc(NC(=S)NCCC(C)C)cc1,,"11.2 µM [rising, single point]"
COc1ccc(N2CCN(Cc3cccn3-c3nnc(N4CCN(C5CCCCC5)CC4)s3)CC2)cc1,"20 µM [falling, partial curve, poor fit]",
COc1cc2c(cc1OC)CN(C(=O)NS(=O)(=O)c1ccc(C)cc1)CC2,"7.08 µM [rising, partial curve, poor fit]",
COc1cccc(-c2nc(N3CCCCC3C)c3ccccc3n2)c1O (stereo not given),"14.1 µM [rising, single point]","20 µM [rising, partial curve]"
CC1CCN(c2cc(N3CCN(C(=O)c4ccc(F)c(F)c4)CC3)c([N+](=O)[O-])cc2F)CC1,"28.2 µM [rising, single point]","35.5 µM [rising, single point]"
COC(=O)c1ccc(CSc2ccccc2C)o1,"11.2 µM [rising, single point]","5.01 µM [rising, full curve]"
Cc1ccc(C2(C(F)(F)F)NC(=O)N3N=C4CCCCCN4C3=C2C#N)cc1 (stereo not given),"0.0891 µM [rising, full curve, poor fit]",
Cc1ccc(S(=O)(=O)CCSC(=N)N)cc1,,"35.5 µM [rising, single point]"
COc1ccc(CNC(=O)C2CSCCS2)cc1 (stereo not given),"0.708 µM [falling, full curve]","0.631 µM [falling, full curve]"
CCCCNc1nc(=S)n(-c2ccccc2)c(C)c1C(C)=O,"0.708 µM [falling, full curve, poor fit]",
COc1ccc(-c2ccc(-c3nnn(CC(C)=O)n3)cc2)cc1,"11.2 µM [rising, partial curve]","20 µM [rising, partial curve]"
Cc1ccc(-c2cc(C(=O)N(Cc3ccc(C(C)(C)C)cc3)Cc3ccco3)no2)cc1,"3.98 µM [falling, partial curve, poor fit]","5.01 µM [falling, partial curve]"
Cc1ccnc(Nc2nc(-c3c(C)nc4sccn34)cs2)c1,"11.2 µM [rising, partial curve]","10 µM [rising, partial curve]"
Cc1cc(NS(=O)(=O)c2ccccc2)c(C)c(Cl)c1O,"1.58 µM [rising, single point]",
O=C(OCc1ccccc1)c1cccc(-c2nnn(Cc3ccccc3)n2)c1,,"35.5 µM [rising, single point]"
O=C(c1ccccc1F)N1CCN(c2ccc([N+](=O)[O-])c3ncccc23)CC1,"11.2 µM [rising, partial curve, poor fit]","20 µM [rising, single point]"
Cc1ccc(NS(=O)(=O)c2cc3[nH]c(=O)c(=O)[nH]c3cc2C)cc1Cl,"0.0224 µM [falling, full curve, poor fit]","0.02 µM [falling, full curve, poor fit]"
COc1cc(CN2CCN(Cc3ccc(SC)cc3)CC2)cc(OC)c1O,"3.16 µM [rising, single point]",
O=C(C1CC1)N1CCc2cc(Br)cc(S(=O)(=O)N3CCN(c4ccccn4)CC3)c21,,"11.2 µM [rising, partial curve, poor fit]"

Compound,AC50 [1],AC50 [2]
Cc1ccc(C2(c3ccc(C)cc3)CC2C(=O)Nc2ccc([N+](=O)[O-])cc2O)cc1 (stereo not given),"2.51 µM [falling, single point]","2 µM [falling, partial curve, poor fit]"
CCc1ccc(NC(=O)c2ccc(F)c(S(=O)(=O)NCc3ccc(Cl)c(Cl)c3)c2)cc1,"0.631 µM [falling, full curve]","2 µM [falling, full curve, poor fit]"
CCOc1ccccc1CNC(=O)c1ccc2c(c1)nc1n2CCCCC1,,"12.6 µM [rising, partial curve]"
COc1ccccc1-c1c(C(F)(F)F)oc2cc(OC(=O)c3cccc([N+](=O)[O-])c3C)ccc2c1=O,"35.5 µM [falling, single point]","35.5 µM [falling, single point]"
Nc1nc(Cl)nc2c1ncn2[C@@H]1O[C@H](COP(=O)(O)OP(=O)(O)OP(=O)(O)O)[C@H](O)[C@H]1O,"35.5 µM [falling, single point]","1.78 µM [rising, partial curve]"
O=C(NCCCNc1ccc(C(F)(F)F)cc1[N+](=O)[O-])c1ccc(Cl)cc1,"35.5 µM [rising, single point]","35.5 µM [rising, single point]"
COc1ccccc1C(=O)Nc1ccccc1OCc1cc(=O)n2ccccc2n1,"0.0282 µM [falling, full curve, poor fit]",
NS(=O)(=O)c1ccc(NC(=S)Nc2ccc(F)c(F)c2)cc1,"31.6 µM [rising, single point]",
COc1ccc(-c2nnc(SC(C(=O)c3c[nH]c4ccccc34)c3ccccc3)n2N)cc1OC (stereo not given),,"28.2 µM [rising, single point]"
CSc1ccccc1-n1nnnc1SCc1ccccc1,"31.6 µM [rising, single point]","22.4 µM [rising, single point]"
COc1ccc([N+](=O)[O-])cc1NC(=O)C(C)N(C)Cc1cccc(OC)c1OC (stereo not given),,"2.51 µM [rising, partial curve, poor fit]"
Cn1c(=O)cc(OCCCC(=O)NC2CCCC2)c2ccccc21,,"11.2 µM [rising, partial curve]"
O=C(NCCc1ccccc1)c1nc(-c2ccc(Cl)cc2)n2c1CCCCC2,,"35.5 µM [rising, single point]"
Cc1ccc(NC(=O)C2CCCN(S(=O)(=O)c3c(C)noc3C)C2)nc1 (stereo not given),"35.5 µM [rising, single point]","35.5 µM [rising, single point]"
COc1cccc(N2CC(NC(=O)c3ccc(S(=O)(=O)N4CCOCC4)cc3)CC2=O)c1 (stereo not given),"0.708 µM [falling, single point]",
Cc1ccc(C2Nc3ccccc3-c3nc4ccccc4n32)o1 (stereo not given),"31.6 µM [rising, single point]","35.5 µM [rising, single point]"
Cn1cc(C(=O)Nc2ccc3c(c2)CCC3)cn1,,"22.4 µM [rising, single point]"
O=C(c1ccccc1OCc1ccccc1Br)N1CCN(c2ncccn2)CC1,,"14.1 µM [rising, partial curve]"
CC1=C(C(=O)Nc2cccc(Cl)c2C)C2(CCCCCC2)OC1=O,"10 µM [rising, partial curve, poor fit]",
Cc1cc(C)cc(N2C(=O)CC(Sc3ncn[nH]3)C2=O)c1 (stereo not given),"1.26 µM [falling, full curve]",
S=C(Nc1ccccc1)N1CCN(C2CCCCC2)CC1,"0.0398 µM [falling, full curve]","0.0891 µM [falling, full curve]"
Cc1cc(C(=O)C(C)Sc2cccc[n+]2[O-])c(C)n1-c1ccc(Cl)cc1 (stereo not given),,"35.5 µM [rising, single point]"
Cc1sc(NC(=O)c2cc(-c3ccccc3)nc3ccccc23)c(C(N)=O)c1C,,"14.1 µM [rising, partial curve]"
Nc1ccc2c3c(cccc13)C(=O)NC2=O,"3.16 µM [rising, single point]",
O=C(Nc1ccc(N2CCN(C(=O)c3ccccc3)CC2)c(Cl)c1)c1ccc(Br)o1,"35.5 µM [rising, single point]","22.4 µM [rising, partial curve]"
CCn1c(=O)c([N+](=O)[O-])c(NCC(O)c2ccccc2)c2ccccc21 (stereo not given),,"0.501 µM [rising, partial curve, poor fit]"
CC(=O)Nc1ccc(-c2csc(NC(=O)Nc3ccccc3)n2)cc1,,"0.01 µM [rising, full curve, poor fit]"
